# From PubChem BioAssay AID796 (Columbia University Molecular Screening Center, 2007)
# Some of the results follow.
# Experiment: inhibitors of IL-1B driven NFkB p65 nuclear import, primary screen, imaging, HUVEC, IL-1B stimulus, high-content imaging (AID 796)
# Settings: HUVEC IL-1B NFkB p65 nuclear translocation imaging; cells passing quality filter; at 2 µM; stronger effect = lower value
row,Compound,cell count
1,CCOP(C)(=S)SCC(=O)NC(C)(CC)C(=O)O (stereo unspecified),155
2,c1nnnn1CCn1cnnn1,196
3,O=P(Nc1nccs1)(c1ccccc1)c1ccccc1,199
4,CP(=O)(Nc1ccc2c(c1)OCCO2)Oc1ccccc1 (stereo unspecified),125
5,CN(C)CCOC(=O)C(O)(c1ccccc1)C1CCCCC1 (stereo unspecified),121
6,O=C(OC1CN2CCC1CC2)c1cccc(Cl)c1 (stereo unspecified),147
7,CCOC(=O)NC(Sc1ccccc1)C(Cl)(Cl)Cl (stereo unspecified),124
8,CP(=O)(Nc1ccccc1)Oc1ccc(F)cc1 (stereo unspecified),49
9,COC(=O)c1cc2c(s1)N=C(c1ccccc1)N(C)P2(=O)N1CCOCC1 (stereo unspecified),86
10,CCN(CC)CCCOC(=O)C(O)(c1ccccc1)C1CCCCC1 (stereo unspecified),94
11,CCC(=O)N1C2C3N(C(=O)CC)C1C1N(C(=O)CC)C(C(N1C(=O)CC)N3C(=O)CC)N2C(=O)CC,189
12,CP(=O)(Nc1ccccc1F)Oc1ccccc1 (stereo unspecified),187
13,O=P1(Nc2nc3ccc(Cl)cc3s2)COc2ccccc2O1 (stereo unspecified),88
14,COc1ccc(OP(C)(=O)Nc2ccccn2)cc1 (stereo unspecified),194
15,CN(C)CCOC(=O)C(O)(c1ccccc1)C1CCCC1 (stereo unspecified),199
16,CN1CCCC(OC(=O)C(c2ccccc2)c2ccccc2)C1 (stereo unspecified),202
17,COc1ccccc1OP(C)(=O)Nc1ccc(C)cc1C (stereo unspecified),121
18,CP(=O)(Nc1ccccn1)Oc1ccccc1 (stereo unspecified),179
19,CCc1ccc(OP(C)(=O)O)cc1,66
20,CC(C)CC(=O)NC(Sc1ccc(Cl)cc1)C(Cl)(Cl)Cl (stereo unspecified),102
21,Cc1c(NP(C)(=O)Oc2ccc(C(C)C)cc2)c(=O)n(-c2ccccc2)n1C (stereo unspecified),150

row,Compound,cell count
1,Cc1c2non([O-])c-2c(C)[n+](=O)[n+]1[O-],217
2,Oc1ccccc1CNc1ccccn1,161
3,COc1ccccc1OP(C)(=O)Nc1ccc(C)c(C)c1 (stereo unspecified),184
4,CCOP(=O)(Nc1ccccc1)OCC,165
5,Cc1nc2ccc3ccccc3c2o1.O=[N+]([O-])c1cc([N+](=O)[O-])c(O)c([N+](=O)[O-])c1,184
6,CP(=O)(OC12CC3CC(CC(C3)C1)C2)OC12CC3CC(CC(C3)C1)C2,161
7,COc1ccccc1OP(C)(=O)Nc1c(C)n(C)n(-c2ccccc2)c1=O (stereo unspecified),137
8,O=[N+]([O-])c1cccc2n[nH]nc12,114
9,CC(=O)N1C2C3N(C(C)=O)C1C1N(C(C)=O)C(C(N1C(C)=O)N3C(C)=O)N2C(C)=O,175
10,CCc1nc2c(n1)c1c(non1O)c1c2no[n+]1[O-],86
11,CP(=O)(Oc1ccccc1)N1CCOC1=O (stereo unspecified),185
12,CCN(CC)CC(O)COC(=O)C(O)(c1ccccc1)C1CCCCC1 (stereo unspecified),121
13,CC1CCN(C(=O)Oc2c(Cl)cc(Cl)c3cccnc23)CC1,148
14,CC(C)(C)c1ccc(OP(C)(=O)O)cc1,191
15,CP(=O)(Nc1ccc(Cl)cc1)Oc1ccc(F)cc1 (stereo unspecified),70
16,O=C(COc1ccccc1)OC1CN2CCC1CC2 (stereo unspecified),171
17,CP(=O)(NC(=O)Nc1ccccc1)Oc1ccccc1 (stereo unspecified),159
18,COP1(=S)c2c(C)nn(CCC#N)c2N=C(c2ccc(F)cc2)N1C (stereo unspecified),168
19,CP(=O)(Nc1ccccn1)Oc1ccc(Cl)cc1 (stereo unspecified),194
20,CCC(C)N(CC(C)C)C(=S)SC(NC(C)=O)C(Cl)(Cl)Cl (stereo unspecified),131
21,CP(=S)(Nn1cnnc1)Oc1ccccc1 (stereo unspecified),158

row,Compound,cell count
1,COc1ccc(OP(C)(=O)Nc2cccc(F)c2)cc1 (stereo unspecified),169
2,CCN(CC)C(=S)SC(NC=O)C(Cl)(Cl)Cl (stereo unspecified),210
3,ClCCSc1nnc(-c2cccnc2)o1,158
4,O=C(OC1CN2CCC1CC2)C12CC3CC(CC(C3)C1)C2 (stereo unspecified),101
5,Cc1cccc(OCC(=O)OC2CN3CCC2CC3)c1 (stereo unspecified),64
6,Cc1ccc(C)c(NP(C)(=O)Oc2ccccc2)c1 (stereo unspecified),120
7,Cc1cc(C)cc(OP(C)(=O)Nc2ccccn2)c1 (stereo unspecified),116
8,CCOP1(=S)c2c(C)nn(CCC#N)c2N=C(c2ccccc2F)N1C (stereo unspecified),140
9,O=[N+]([O-])c1ccc2c(c1)nnn2O,168
10,CCOP1(=S)c2c(C)nn(CCC#N)c2N=C(c2ccc(F)cc2)N1C (stereo unspecified),181
11,Cc1nn(-c2ccccc2)c2c1P(=O)(N1CCOCC1)N(C)C(c1ccccc1)=N2 (stereo unspecified),148
12,O=P1(Nc2ccc(Br)cn2)COc2ccccc2OC1,100
13,Cc1ccc(OCC(=O)OC2CN3CCC2CC3)cc1 (stereo unspecified),150
14,O=P1(Nc2ncccn2)COc2ccccc2OC1,115
15,COc1ccccc1OP(C)(=O)Nc1c(C)cccc1C (stereo unspecified),168
16,Clc1n[nH]nc1-c1nn[nH][15n]1,85
17,O=P1(Nc2ccccn2)COc2ccccc2OC1,133
18,Cc1nc2ccc3ccccc3c2s1.O=[N+]([O-])c1cc([N+](=O)[O-])c(O)c([N+](=O)[O-])c1,137
19,CC1(CBr)Cn2c(nc3ccccc3c2=O)S1 (stereo unspecified),80
